Test results as given in patent US20180099931A1 (AbbVie S.à.r.l., priority 2016, published 2018).
Like-named read-outs stand apart in the source and are kept apart here. The match of structure and compound is tentative.

The chains behind the UniProt entries cited, without tags or fusion partners. A line that says so, or that is headed by a name, gives the form on record, which may keep a tag or linker.
UniProt P13569, with tags, fused parts or gaps DEL508-508: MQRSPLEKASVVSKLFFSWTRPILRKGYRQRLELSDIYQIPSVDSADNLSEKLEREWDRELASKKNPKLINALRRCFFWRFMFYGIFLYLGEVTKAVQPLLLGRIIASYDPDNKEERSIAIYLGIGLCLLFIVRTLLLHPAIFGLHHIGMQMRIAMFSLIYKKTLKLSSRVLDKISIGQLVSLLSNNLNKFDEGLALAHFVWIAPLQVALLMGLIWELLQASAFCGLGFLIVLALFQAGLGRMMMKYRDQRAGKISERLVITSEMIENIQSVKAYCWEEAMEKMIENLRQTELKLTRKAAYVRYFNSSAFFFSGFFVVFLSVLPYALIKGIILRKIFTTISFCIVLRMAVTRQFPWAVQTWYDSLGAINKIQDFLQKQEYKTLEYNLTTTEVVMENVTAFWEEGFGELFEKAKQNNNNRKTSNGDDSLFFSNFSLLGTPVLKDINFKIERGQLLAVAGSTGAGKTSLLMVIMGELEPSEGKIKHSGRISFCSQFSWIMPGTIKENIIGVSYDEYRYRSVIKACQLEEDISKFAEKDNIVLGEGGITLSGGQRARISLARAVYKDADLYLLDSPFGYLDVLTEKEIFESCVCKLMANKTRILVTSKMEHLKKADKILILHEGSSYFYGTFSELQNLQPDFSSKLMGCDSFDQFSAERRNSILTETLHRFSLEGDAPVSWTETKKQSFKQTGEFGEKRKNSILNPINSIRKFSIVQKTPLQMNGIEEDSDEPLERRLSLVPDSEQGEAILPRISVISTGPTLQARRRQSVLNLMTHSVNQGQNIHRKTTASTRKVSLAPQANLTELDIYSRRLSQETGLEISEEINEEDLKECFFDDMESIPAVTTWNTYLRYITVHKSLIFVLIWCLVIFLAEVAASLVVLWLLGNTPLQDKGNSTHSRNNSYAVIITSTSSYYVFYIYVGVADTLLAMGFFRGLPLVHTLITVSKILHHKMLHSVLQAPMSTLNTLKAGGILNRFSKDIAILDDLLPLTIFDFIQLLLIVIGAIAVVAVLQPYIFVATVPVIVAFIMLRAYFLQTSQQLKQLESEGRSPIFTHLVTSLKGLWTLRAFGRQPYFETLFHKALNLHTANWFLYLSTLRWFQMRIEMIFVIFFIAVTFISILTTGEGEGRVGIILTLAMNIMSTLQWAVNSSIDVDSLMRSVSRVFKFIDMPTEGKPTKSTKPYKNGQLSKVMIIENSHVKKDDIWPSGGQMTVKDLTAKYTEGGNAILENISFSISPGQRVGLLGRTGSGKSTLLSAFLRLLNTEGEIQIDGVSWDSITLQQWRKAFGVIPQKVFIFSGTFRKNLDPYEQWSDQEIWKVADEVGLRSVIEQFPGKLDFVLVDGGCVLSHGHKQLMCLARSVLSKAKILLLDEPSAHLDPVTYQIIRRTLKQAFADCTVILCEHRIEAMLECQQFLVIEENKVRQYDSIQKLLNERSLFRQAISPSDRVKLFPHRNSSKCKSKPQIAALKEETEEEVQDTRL

Biological target: F508delCFTR (Homo sapiens, UniProt P13569, DEL508-508)
Assay: Cell Surface Expression-Horse Radish Peroxidase (CSE-HRP) Assay;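 for Maximum % activity (with co-corrector): co-corrector and positive control are both the same reference corrector at 2 µM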
Assay type: cell-based

- EC50 (read-out: EC50 (with co-corrector), with co-corrector (2 μM of 3-[(2R,4R)-4-({[1-(2,2-difluoro-1,3-benzodioxol-5-yl)cyclopropyl]carbonyl}amino)-7-methoxy-3,4-dihydro-2H-chromen-2-yl]benzoic acid)): 1 to 10 µM
- EC50 (read-out: EC50 (without co-corrector), test compound without co-corrector): 1 to 10 µM
- Maximum % activity (with co-corrector) (with co-corrector (2 μM of 3-[(2R,4R)-4-({[1-(2,2-difluoro-1,3-benzodioxol-5-yl)cyclopropyl]carbonyl}amino)-7-methoxy-3,4-dihydro-2H-chromen-2-yl]benzoic acid), maximum at any tested concentration, normalized to on-plate positive control): +++ (≥350)
Compound: CC(C)(CN[C@H]1[C@H](C(C)(C)C)[C@@H](C(=O)O)N(C(=O)C2CCCCC2)[C@H]1c1ccccc1)c1ccc(Cl)cc1
